{
  "source": "the supplement of paper PMC12067093",
  "about": "“Discovery and optimisation of a covalent ligand for TRIM25 and its application to targeted protein ubiquitination” (Chemical Science, 2025)",
  "note": "Some of the results follow.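 Further: competitive profiling in live THP-1 cells: cysteine peptides tagged with an iodoacetamide desthiobiotin (IA-DTB) probe, intensity after compound treatment relative to DMSO-treated cells.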",
  "data": [
    {"compound": "Cc1cc(ccc1-c1ccccc1)C(=O)N1CCCN(CC1)C(=O)CCl [compound 10]", "experiment": "probe-labelled cysteine peptide fold change vs DMSO (competition) (log2 fold change); higher = less target engagement (more negative = stronger competition)", "conditions": "10 µM; THP-1; incubation time: 4 h", "values": [
      {"target": "GLOD4_Q9HC38-2_41_VLRHEEFEEGCK (UniProt Q9HC38)", "probe-labelled cysteine peptide fold change": -0.835},
      {"target": "GNB2_P62879_294_LLLAGYDDFNCNIWDAMK (UniProt P62879)", "probe-labelled cysteine peptide fold change": 0.0495},
      {"target": "GNPDA1_P46926_48_YFTLGLPTGSTPLGCYK (UniProt P46926)", "probe-labelled cysteine peptide fold change": -0.0656},
      {"target": "GPR108_Q9NPR9_104_DFQDCPLQK (UniProt Q9NPR9)", "probe-labelled cysteine peptide fold change": -0.24},
      {"target": "GNL3L_Q9NVN8_490_IGDLTGYCTNPNR (UniProt Q9NVN8)", "probe-labelled cysteine peptide fold change": 0.0305},
      {"target": "GLA_P06280_94_DAGYEYLCIDDCWMAPQR (UniProt P06280)", "probe-labelled cysteine peptide fold change": -0.33},
      {"target": "GMIP_Q9P107_521_ECEAFMVSGTECEECFLTCHK (UniProt Q9P107)", "probe-labelled cysteine peptide fold change": -0.0581},
      {"target": "GPATCH4_Q5T3I0_152_ILTDEMLLQACEGR (UniProt Q5T3I0)", "probe-labelled cysteine peptide fold change": 0.13},
      {"target": "GORASP2_Q9H8Y8_173_LYVYNTDTDNCR (UniProt Q9H8Y8)", "probe-labelled cysteine peptide fold change": -0.103},
      {"target": "GNB1_P62873_25_KACADATLSQITNNIDPVGR (UniProt P62873)", "probe-labelled cysteine peptide fold change": -0.0343},
      {"target": "GMPR2_Q9P2T1_348_VTQQVNPIFSEAC (UniProt Q9P2T1)", "probe-labelled cysteine peptide fold change": -0.349},
      {"target": "GPT2_Q8TD30_265_VLCIINPGNPTGQVQSR (UniProt Q8TD30)", "probe-labelled cysteine peptide fold change": 0.0968},
      {"target": "GNL2_Q13823_362_IFLIDCPGVVYPSEDSETDIVLK (UniProt Q13823)", "probe-labelled cysteine peptide fold change": 0.17},
      {"target": "GMPR2_Q9P2T1_222+224_GHIISDGGCSCPGDVAK (UniProt Q9P2T1)", "probe-labelled cysteine peptide fold change": -0.11},
      {"target": "GNL3_Q9BVP2_156_KVIEASDVVLEVLDARDPLGCR (UniProt Q9BVP2)", "probe-labelled cysteine peptide fold change": -0.0741},
      {"target": "GNPTG_Q9UJJ9_142_VELACGK (UniProt Q9UJJ9)", "probe-labelled cysteine peptide fold change": -0.307},
      {"target": "GLYR1_Q49A26_356_CYVDMSTVDADTVTELAQVIVSR (UniProt Q49A26)", "probe-labelled cysteine peptide fold change": 0.772},
      {"target": "GLG1_Q92896_984_LSSDCEDQIR (UniProt Q92896)", "probe-labelled cysteine peptide fold change": -0.26},
      {"target": "GNS_P15586_513_LMMLQSCSGPTCR (UniProt P15586)", "probe-labelled cysteine peptide fold change": 0.168},
      {"target": "GNB1_P62873_25_ACADATLSQITNNIDPVGR (UniProt P62873)", "probe-labelled cysteine peptide fold change": 0.127},
      {"target": "GMIP_Q9P107_525_ECEAFMVSGTECEECFLTCHK (UniProt Q9P107)", "probe-labelled cysteine peptide fold change": 0.0436},
      {"target": "GNB1_P62873_148_ELAGHTGYLSCCR (UniProt P62873)", "probe-labelled cysteine peptide fold change": 0.0142},
      {"target": "GLG1_Q92896_639_CLIDLGK (UniProt Q92896)", "probe-labelled cysteine peptide fold change": -0.208},
      {"target": "GNPDA2_Q8TDQ7_118_HIDIDPNNAHILDGNAADLQAECDAFENK (UniProt Q8TDQ7)", "probe-labelled cysteine peptide fold change": -0.108},
      {"target": "GNL3_Q9BVP2_131_LYCQELK (UniProt Q9BVP2)", "probe-labelled cysteine peptide fold change": -0.255},
      {"target": "GNB2_P62879_25_ACGDSTLTQITAGLDPVGR (UniProt P62879)", "probe-labelled cysteine peptide fold change": -0.0156},
      {"target": "GPD1L_Q8N335_343_PVQEMLSCLQSHPEHT (UniProt Q8N335)", "probe-labelled cysteine peptide fold change": -0.0955},
      {"target": "GOT2_P00505_272+274_HFIEQGINVCLCQSYAK (UniProt P00505)", "probe-labelled cysteine peptide fold change": 0.416},
      {"target": "GOLGA4_Q13439_1862_ELDSCLVR (UniProt Q13439)", "probe-labelled cysteine peptide fold change": 0.0418},
      {"target": "GLRX_P35754_26_VVVFIKPTCPYCR (UniProt P35754)", "probe-labelled cysteine peptide fold change": -1.05},
      {"target": "GPHN_Q9NQX3_154_GSQECFQFILPALPHAIDLLR (UniProt Q9NQX3)", "probe-labelled cysteine peptide fold change": -0.188},
      {"target": "GNPAT_O15228_478_VDSGDSEVVDGLMLQHITLLMCSAYR (UniProt O15228)", "probe-labelled cysteine peptide fold change": 0.354},
      {"target": "GNPDA1_P46926_118_HIDIHPENTHILDGNAVDLQAECDAFEEK (UniProt P46926)", "probe-labelled cysteine peptide fold change": -0.112},
      {"target": "GOSR2_O14653_18_QVHEIQSCMGR (UniProt O14653)", "probe-labelled cysteine peptide fold change": 0.169},
      {"target": "GPRIN1_Q7Z2K8_221_VDPLCSSK (UniProt Q7Z2K8)", "probe-labelled cysteine peptide fold change": 0.0483},
      {"target": "GNS_P15586_518_LMMLQSCSGPTCR (UniProt P15586)", "probe-labelled cysteine peptide fold change": 0.171},
      {"target": "GLMP_Q8WWB7_216_LLHTADTCQLEVALIGASPR (UniProt Q8WWB7)", "probe-labelled cysteine peptide fold change": 0.0516},
      {"target": "GMIP_Q9P107_274_AQEAEALYQACVR (UniProt Q9P107)", "probe-labelled cysteine peptide fold change": 0.181}
    ]}
  ]
}
